Assay results: article PMC8593141
Results are given in words; binding and its absence hold for the method and conditions named. Binding seen in cells or lysates may run through a third protein. Some results given as binding are weak or reduced against the parent protein; the word gives no strength. Where a sequence is shown, tags or fusion partners need not be part of it.

Target: T1, mouse Kv4.2 channel with GFP fused to the C-terminus (Kv4.2g) (mouse), Q9Z0V2
T1 chain: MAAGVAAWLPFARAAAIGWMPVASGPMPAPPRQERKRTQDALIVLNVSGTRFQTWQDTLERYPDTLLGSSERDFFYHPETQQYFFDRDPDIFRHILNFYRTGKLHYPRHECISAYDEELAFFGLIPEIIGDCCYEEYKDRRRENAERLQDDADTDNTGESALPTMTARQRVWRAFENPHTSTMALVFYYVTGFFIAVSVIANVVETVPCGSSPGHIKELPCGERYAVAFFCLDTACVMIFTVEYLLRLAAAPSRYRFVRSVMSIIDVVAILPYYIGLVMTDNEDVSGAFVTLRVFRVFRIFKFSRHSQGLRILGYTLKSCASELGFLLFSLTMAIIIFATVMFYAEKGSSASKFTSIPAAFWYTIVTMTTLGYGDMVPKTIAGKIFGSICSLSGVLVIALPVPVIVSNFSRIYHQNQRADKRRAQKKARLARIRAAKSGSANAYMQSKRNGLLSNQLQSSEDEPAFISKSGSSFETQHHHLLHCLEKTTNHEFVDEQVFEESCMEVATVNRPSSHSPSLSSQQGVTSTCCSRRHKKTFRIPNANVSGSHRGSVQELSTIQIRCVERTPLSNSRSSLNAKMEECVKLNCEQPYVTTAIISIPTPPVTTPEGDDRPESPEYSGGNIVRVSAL
Experiment: co-IP; preliminary immunoprecipitation from HEK cells co-transfected with Kv4.2g, HA-KChIP2a and HA-DPP10c (Supplementary Figure 1D); antibody used for the IP not given
Settings: remark: other sources report otherwise

B1: hemagglutinin (HA)-tagged DPP10c (HA-DPP10c), Q6NXK7 1-797 (protein)
chain: MKQEQQPTPGARATQSQPADQELGSNSPPQRNWKGIAIALLVILVVCSLITMSVILLTPDELTNSSETRLSLEELLGKGFGLHNPEPRWINDTVVVYKTNNGHVMKLNTESNASTLLLDNSTFVTFKASRHSLSPDLKYVLLAYDVKQIFHYSFTASYLIYNIHTGEVWELNPPEVEDSVLQYAAWGVQGQQLIYIFENNIYYQPDIKSSSLRLTSSGKEGIIFNGIADWLYEEELLHSHIAHWWSPDGERLAFLMINDSLVPNMIIPRFTGALYPKAKQYPYPKAGQANPSVKLYVVNLYGPTHTLELMPPDIFKSREYYITMVKWVSNTRTVVRWLNRPQNISILTLCESTTGACSRKYEMTSDTWLSKQNEEPVFSRDGSKFFMTVPVKQGGRGEFHHIAMFLVQSKSEQITVRHLTSGNWEVIRILAYDETTQKIYFLSTESSPQGRQLYSASTEGLLNRDCISCNFMKEDCTYFDASFSPMNQHFLLFCEGPKVPVVSLHITDNPSRYFLLENNSVMKETIQKKKLAKRETRILHIDDYELPLQLSFPKDFMEKNQYALLLIMDEEPGGQMVTDKFHVDWDSVLIDTDNVIVARFDGRGSGFQGLKVLQEIHRRIGSVEAKDQVAAVKYLLKQPYIDSKRLSIFGKGYGGYIASMILKSDEKFFKCGAVVAPISDMKLYASAFSERYLGMPSKEESTYQASSVLHNIHGLKEENLLIIHGTADTKVHFQHSAELIKHLIKAGVNYTLQVYPDEGYHISDKSKHHFYSTILRFFSDCLKEEVSVLPQEPEEDE
With B1 the binding was “binds”.
